Reference: US20260027152A1
These are yes or no findings as the source states them, for the method shown. Some binding calls cover weakened binding; strength is not graded here.

Amino acid sequences for entries named in this document (tags omitted). Residues count along the entry.
UniProt Q5VWK5, residues 24-353: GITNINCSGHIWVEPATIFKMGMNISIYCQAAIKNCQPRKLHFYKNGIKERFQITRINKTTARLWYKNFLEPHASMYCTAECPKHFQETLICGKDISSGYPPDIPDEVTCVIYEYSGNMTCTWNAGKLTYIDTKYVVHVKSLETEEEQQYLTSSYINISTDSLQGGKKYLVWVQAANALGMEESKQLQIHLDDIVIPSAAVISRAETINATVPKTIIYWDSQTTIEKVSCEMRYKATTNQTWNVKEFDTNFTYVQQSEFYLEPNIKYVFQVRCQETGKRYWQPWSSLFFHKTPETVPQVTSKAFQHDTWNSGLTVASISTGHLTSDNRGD

How the values were obtained:
[1] = biological target: human IL23Ra (coated on beads) (human) (UniProt Q5VWK5); experiment: no assay named in the sentence
[2] = biological target: T1, mouse IL23Ra (coated on beads) (mouse) (UniProt Q8K4B4); experiment: no assay named in the sentence
T1 sequence (looked up): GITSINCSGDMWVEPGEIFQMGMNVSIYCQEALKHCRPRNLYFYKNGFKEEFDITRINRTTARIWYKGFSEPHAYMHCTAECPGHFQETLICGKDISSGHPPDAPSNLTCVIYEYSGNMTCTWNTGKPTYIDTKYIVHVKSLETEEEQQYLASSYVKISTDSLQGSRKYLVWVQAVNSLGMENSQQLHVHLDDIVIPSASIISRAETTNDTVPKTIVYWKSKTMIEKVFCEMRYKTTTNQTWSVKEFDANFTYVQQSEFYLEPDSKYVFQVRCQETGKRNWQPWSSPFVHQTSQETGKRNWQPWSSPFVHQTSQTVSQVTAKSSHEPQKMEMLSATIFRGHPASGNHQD

[3] = biological target: human IL23Ra (coated on beads) (human) (UniProt Q5VWK5); experiment: flow cytometry; biotinylated scFv on IL23Ra-coated beads
[4] = biological target: T1, mouse IL23Ra (coated on beads) (mouse); experiment: as above
[5] = biological target: human IL23Ra (coated on beads) (human) (UniProt Q5VWK5); experiment: flow cytometry; biotinylated scFv on IL23Ra-coated beads (FIG. 14)
[6] = biological target: T1, mouse IL23Ra (coated on beads) (mouse); experiment: as above
[7] = biological target: human IL23Ra (coated on beads) (human) (UniProt Q5VWK5); experiment: flow cytometry: biotinylated scFv on IL23Ra-coated beads, detected with APC-labelled streptavidin, median fluorescence against conc. scFv [nM]

Measured: binding

B1: anti-IL-23R scFv IL23RLamS4-G3 (scFv)
scFv: QSVLTQPPSVSGAPGQRVTISCTGSSSNIGAGYDVHWYQQLPGTAPKLLIYGNNNRPSGVPDRFSGSKSGTSASLAITGLQAEDEADYYCQSYDTGLSAWVFGGGTKLTVLGGGGSGGGGSGGGGSQLQLQESGPGLVKPSETLSLTCTVSGGSITSSNYYWGWIRQPPGKGLEWIGSIYYSGNTYYNPSLKSRVTISVDTSKNQFSLKLSSVTAADTAVYYCAREWSPYESEGFDYWGQGTLVTVSS
modifications: biotinylated (sites not given)
binds: all assays above
